Results reported in paper PMC9166362, “Early midcell localization of Escherichia coli PBP4 supports the function of peptidoglycan amidases” (PLoS Genetics, 2022).
No constants are given. Whether binding was seen depends on the method and setting. For some of these results: A result given as binding can be weak or reduced; the word gives no strength. For some of these results: Sequences can lack the tags named with a protein.

Amino acid sequences for entries named in this document (tags omitted). A change or cut given only in a name is not applied to a line headed by its entry.
UniProt P24228: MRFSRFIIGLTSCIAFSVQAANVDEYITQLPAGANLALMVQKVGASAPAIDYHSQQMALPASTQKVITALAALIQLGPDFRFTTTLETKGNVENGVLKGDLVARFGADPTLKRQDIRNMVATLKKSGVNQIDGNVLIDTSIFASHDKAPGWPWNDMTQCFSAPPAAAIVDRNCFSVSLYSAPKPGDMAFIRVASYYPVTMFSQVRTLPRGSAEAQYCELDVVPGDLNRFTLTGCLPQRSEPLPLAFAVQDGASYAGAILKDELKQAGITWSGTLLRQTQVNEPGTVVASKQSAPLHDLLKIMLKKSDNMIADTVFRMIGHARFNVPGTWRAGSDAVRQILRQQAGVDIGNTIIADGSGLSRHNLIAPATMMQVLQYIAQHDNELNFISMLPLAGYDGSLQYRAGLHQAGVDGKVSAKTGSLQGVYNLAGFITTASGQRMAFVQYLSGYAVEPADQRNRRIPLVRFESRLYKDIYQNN

Assays:
[1] = target: T1, NlpI, soluble, as used in microscale thermophoresis (E. coli) (UniProt P0AFB1); assay: MST; one protein fluorescently labelled (NT-647 dye) at a fixed concentration, two-fold serial dilution of unlabelled ligand over 16 samples; 25 mM HEPES/NaOH, 150 mM NaCl, 0.05% Triton X-100, pH 7.5; Monolith NT.115; apparent KD; both purified
T1 sequence: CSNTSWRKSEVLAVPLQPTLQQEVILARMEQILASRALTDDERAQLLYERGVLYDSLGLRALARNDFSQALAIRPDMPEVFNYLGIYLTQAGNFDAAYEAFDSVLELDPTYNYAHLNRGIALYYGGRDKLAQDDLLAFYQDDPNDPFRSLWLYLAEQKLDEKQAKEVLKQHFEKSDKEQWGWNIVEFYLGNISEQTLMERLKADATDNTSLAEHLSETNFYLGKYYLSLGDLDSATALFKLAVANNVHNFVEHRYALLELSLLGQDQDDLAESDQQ

[2] = target: T2, EnvC, soluble version without the N-terminal 34 amino acid signal peptide (E. coli) (UniProt P37690); assay: as above
T2 sequence: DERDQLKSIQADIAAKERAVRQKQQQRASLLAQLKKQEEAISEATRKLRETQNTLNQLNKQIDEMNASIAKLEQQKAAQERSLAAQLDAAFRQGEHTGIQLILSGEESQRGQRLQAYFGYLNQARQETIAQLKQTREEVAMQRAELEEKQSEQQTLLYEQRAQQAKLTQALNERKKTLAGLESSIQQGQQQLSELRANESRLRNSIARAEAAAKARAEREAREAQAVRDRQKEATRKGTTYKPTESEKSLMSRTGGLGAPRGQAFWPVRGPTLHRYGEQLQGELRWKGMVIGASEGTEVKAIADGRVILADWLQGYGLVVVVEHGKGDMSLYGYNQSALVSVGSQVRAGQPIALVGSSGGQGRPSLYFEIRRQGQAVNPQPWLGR

[3] = target: T3, PBP1A, purified (full length His-PBP1A) (E. coli) (UniProt P02918); assay: as above
T3 sequence: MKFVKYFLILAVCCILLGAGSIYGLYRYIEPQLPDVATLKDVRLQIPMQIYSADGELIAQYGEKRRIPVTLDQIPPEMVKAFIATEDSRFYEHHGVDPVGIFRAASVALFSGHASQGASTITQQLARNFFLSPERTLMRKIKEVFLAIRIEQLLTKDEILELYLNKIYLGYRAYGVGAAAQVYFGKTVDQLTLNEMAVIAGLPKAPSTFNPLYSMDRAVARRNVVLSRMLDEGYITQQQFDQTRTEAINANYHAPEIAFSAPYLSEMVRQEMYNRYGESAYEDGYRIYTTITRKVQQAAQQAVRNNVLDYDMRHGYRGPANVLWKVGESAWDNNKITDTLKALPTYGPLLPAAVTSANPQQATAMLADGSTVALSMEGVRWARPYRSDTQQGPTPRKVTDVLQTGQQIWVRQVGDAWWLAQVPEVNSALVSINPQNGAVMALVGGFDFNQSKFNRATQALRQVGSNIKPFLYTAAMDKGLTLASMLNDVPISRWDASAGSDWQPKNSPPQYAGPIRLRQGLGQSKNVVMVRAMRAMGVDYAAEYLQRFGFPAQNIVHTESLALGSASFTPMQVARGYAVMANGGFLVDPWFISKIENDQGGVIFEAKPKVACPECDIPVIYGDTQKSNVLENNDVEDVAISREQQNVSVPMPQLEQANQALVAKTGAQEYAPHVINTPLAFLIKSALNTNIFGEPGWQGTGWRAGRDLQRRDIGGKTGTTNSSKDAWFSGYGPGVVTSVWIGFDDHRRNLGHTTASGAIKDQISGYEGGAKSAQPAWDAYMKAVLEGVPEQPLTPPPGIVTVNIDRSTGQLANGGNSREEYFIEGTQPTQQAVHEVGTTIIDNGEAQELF

[4] = target: T4, LpoA^N, N-terminal domain of LpoA (residues G28-T256) (E. coli) (UniProt P45464); assay: as above
T4 sequence: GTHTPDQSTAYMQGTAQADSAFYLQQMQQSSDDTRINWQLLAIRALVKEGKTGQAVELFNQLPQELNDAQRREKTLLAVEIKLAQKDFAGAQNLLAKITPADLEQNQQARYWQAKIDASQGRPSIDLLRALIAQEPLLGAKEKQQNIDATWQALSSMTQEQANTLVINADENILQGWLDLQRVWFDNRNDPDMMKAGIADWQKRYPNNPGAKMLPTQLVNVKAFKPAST

[5] = target: T5, LpoA^C, C-terminal domain of LpoA (residues N257-S678) (E. coli) (UniProt P45464); assay: as above
T5 sequence: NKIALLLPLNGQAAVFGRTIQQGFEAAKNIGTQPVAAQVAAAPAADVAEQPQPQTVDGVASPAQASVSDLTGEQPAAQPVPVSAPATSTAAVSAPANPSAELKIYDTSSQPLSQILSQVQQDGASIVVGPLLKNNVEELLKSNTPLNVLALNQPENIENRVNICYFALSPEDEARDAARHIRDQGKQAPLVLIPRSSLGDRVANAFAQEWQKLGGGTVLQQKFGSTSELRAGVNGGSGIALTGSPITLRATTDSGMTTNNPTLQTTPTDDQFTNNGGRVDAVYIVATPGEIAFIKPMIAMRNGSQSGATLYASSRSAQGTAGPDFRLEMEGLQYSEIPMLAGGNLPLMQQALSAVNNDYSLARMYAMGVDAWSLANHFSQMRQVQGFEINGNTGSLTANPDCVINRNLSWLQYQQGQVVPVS

[6] = target: PBP4ΔD3 (PBP4 lacking domain 3), His-tagged (E. coli) (UniProt P24228); assay: pull-down; Ni-NTA beads; equimolar (1–2 μM) His-tagged and untagged proteins; 10 mM HEPES/NaOH, 10 mM MgCl2, 150 mM NaCl, 0.05% Triton X-100, pH 7.5, 4°C; washes with 30 mM imidazole; SDS-PAGE; His-NlpI also with PBP4 and EnvC together; both purified

In the case of “LytM domain of EnvC (EnvC-LytM) (E. coli) (domain or fragment)”, the binding [1] is reported as “binds”.

For “PBP4ΔD3 (PBP4 lacking domain 3), His-tagged (from UniProt P24228) (enzyme)”, the binding [1] was “no binding”, the binding [2] was “no binding (tested: KD > 5900±2823 nM)” and the binding [3] was “binds”. The binding [4] was “binds” and the binding [5] was “binds”.

B1: untagged NlpI (soluble) (protein, UniProt P0AFB1 19-294)
chain: CSNTSWRKSEVLAVPLQPTLQQEVILARMEQILASRALTDDERAQLLYERGVLYDSLGLRALARNDFSQALAIRPDMPEVFNYLGIYLTQAGNFDAAYEAFDSVLELDPTYNYAHLNRGIALYYGGRDKLAQDDLLAFYQDDPNDPFRSLWLYLAEQKLDEKQAKEVLKQHFEKSDKEQWGWNIVEFYLGNISEQTLMERLKADATDNTSLAEHLSETNFYLGKYYLSLGDLDSATALFKLAVANNVHNFVEHRYALLELSLLGQDQDDLAESDQQ
For B1, the binding [6] was “no binding (tested: 1–2 μM)”.
